{
  "sequences": {"note": "Sequences of proteins named here, by UniProt entry; tags and fusion partners are left off.", "UniProt Q13547": "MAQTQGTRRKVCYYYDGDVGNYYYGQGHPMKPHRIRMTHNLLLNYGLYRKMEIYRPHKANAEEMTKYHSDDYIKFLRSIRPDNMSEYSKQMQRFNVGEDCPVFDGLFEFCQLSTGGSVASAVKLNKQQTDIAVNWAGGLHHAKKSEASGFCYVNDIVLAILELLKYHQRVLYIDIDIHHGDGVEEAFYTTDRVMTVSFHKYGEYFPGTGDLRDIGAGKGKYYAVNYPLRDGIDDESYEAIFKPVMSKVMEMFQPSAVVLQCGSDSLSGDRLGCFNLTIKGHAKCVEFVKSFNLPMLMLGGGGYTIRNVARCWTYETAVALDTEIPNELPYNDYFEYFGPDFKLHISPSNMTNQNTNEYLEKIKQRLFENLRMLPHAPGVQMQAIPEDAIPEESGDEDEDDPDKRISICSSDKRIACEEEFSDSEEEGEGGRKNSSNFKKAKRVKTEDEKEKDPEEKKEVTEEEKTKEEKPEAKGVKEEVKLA"},
  "source": "paper PMC10394028",
  "target": "T1, FLAG-tagged TRIB1 (human) (UniProt Q96RU8)",
  "T1 sequence": "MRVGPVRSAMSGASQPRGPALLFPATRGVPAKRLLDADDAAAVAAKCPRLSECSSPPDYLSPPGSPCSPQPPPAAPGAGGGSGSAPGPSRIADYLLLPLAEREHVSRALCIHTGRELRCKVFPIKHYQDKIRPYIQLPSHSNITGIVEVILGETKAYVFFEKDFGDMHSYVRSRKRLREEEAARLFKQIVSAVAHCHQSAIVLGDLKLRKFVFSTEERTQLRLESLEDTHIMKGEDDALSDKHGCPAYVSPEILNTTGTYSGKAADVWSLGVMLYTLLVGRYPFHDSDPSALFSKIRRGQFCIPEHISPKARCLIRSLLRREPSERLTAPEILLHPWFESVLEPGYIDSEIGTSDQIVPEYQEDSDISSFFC",
  "assay": "co-IP; FLAG-tagged TRIB1 precipitated (FLAG antibody, Pierce Co-IP kit, or anti-DYKDDDDK magnetic agarose beads) from total lysates of stable GBM cells (T08-387, LN18, GBM30, 3359) in the kit's IP lysis buffer; eluate blotted; in one panel after COP1 knockdown by shRNA",
  "note": "No constants are given. Whether binding was seen depends on the method and setting. Binding seen in cells or lysates may run through a third protein. Some results given as binding are weak or reduced against the parent protein; the word gives no strength. Tags and fused reporters may be left off the sequences shown.",
  "data": [
    {"substance": "p53 (wild type, T08-387 cells) (from UniProt P04637 1-393)", "values": [
      {"measurement": "binding", "value": "binds"}
    ]},
    {"substance": "HDAC1 (from UniProt Q13547 1-482)", "values": [
      {"measurement": "binding", "value": "binds"}
    ]}
  ]
}
